Source: publication PMC4117747, “The N-terminus of Mcm10 is important for interaction with the 9-1-1 clamp and in resistance to DNA damage” (Nucleic Acids Research, 2014)
Results are given in words; binding and its absence hold for the method and conditions named. For part of these data: In cells and extracts the contact can be indirect. Some binding calls cover weakened binding; strength is not graded here. Tags and fused reporters may be left off the sequences shown.

Tests used:
[1] = biological target: T1, Mcm10 (LexA fusion, wild type) (S. cerevisiae) (UniProt P32354); assay: co-IP; overexpressed LexA-tagged Mcm10 constructs with HA-tagged Mec3; anti-LexA beads pull down Mcm10; cells untreated or exposed to UV light
T1 sequence: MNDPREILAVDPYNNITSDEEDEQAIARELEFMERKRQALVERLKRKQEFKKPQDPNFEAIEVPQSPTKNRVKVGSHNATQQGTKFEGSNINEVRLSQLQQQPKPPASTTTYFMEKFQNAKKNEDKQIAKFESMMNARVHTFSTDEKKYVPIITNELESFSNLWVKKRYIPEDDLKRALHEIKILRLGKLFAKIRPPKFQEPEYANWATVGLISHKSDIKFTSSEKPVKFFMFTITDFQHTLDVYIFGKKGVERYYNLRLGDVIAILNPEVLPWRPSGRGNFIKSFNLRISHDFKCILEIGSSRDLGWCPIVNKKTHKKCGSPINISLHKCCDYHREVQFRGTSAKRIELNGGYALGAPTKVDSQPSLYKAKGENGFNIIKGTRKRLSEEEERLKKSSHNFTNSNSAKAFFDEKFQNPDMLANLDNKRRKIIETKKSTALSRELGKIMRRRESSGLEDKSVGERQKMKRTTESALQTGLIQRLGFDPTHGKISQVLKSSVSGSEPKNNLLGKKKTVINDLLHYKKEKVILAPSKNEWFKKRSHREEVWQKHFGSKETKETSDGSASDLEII

[2] = biological target: T2, Mcm10Δ100 (LexA fusion) (S. cerevisiae) (UniProt P32354); assay: as above
T2 sequence: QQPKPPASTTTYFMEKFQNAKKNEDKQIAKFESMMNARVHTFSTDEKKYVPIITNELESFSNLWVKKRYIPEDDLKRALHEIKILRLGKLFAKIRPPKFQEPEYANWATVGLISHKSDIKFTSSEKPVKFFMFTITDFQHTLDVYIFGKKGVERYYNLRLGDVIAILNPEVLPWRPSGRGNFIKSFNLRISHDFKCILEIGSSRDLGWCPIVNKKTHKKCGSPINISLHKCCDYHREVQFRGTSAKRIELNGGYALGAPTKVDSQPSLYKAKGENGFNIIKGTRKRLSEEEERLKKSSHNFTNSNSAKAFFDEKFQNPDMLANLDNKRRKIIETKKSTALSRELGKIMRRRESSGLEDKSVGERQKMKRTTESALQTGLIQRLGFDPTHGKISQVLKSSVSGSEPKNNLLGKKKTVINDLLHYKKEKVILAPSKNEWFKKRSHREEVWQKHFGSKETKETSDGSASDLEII

[3] = biological target: T1, Mcm10 (LexA fusion, wild type) (S. cerevisiae); assay: two-hybrid; yeast two-hybrid with pBTM116 (LexA) and pACT2 fusions; β-galactosidase activity in cell extracts, in triplicate from at least three clones

Measured: binding

B1: Mec3 (pACT2 fusion, wild type) (protein, UniProt Q02574 1-474)
chain: MKLKLIVNGCEAPDDYKLLRTTINTVASLRKTAILRFNSERLTIISTPKSSLNSSNNGTILRGDTGQLWCTIPHDVFRLYTVISARELNTITMECNCDSLLSVFKRYDRVMNQGSSSNMTIKLQSMPEWNTNNGTLSGGTAGGVDTTSKPNPICALGITFEEIVHTSGPNDAIVMNGGVDEHNGLPTTVGTGNLLASNKVIMHSFKVPVKLLFRAQDTRIQEPMINYIQLMMYKLPPISGEFGSAFHGFIRRVERYSNVNHIHLMGVKKKEHGNEGDDVELKIIVNELDWHLEICWNGPLDSVIQRQEGLTDNPSQNQHIDTDGRQEEGSLPIIEADKPMSSLYTNTRDREMEENIRYDEDLLRIEDSSIADTRGNIYTADTSGDTEFNDISVMVEKAEQESSSTHEVIIRCKDWKVCSKLYAAFEEVVLAISHDESCVFHCSLDRGSLEDSEDVEKPRERGQIIYYIARSKGL
binds: all assays above
